Results from US20260139263A1 (IOWA STATE UNIVERSITY RESEARCH FOUNDATION, published 2026).
No constants are given. Whether binding was seen depends on the method and setting. In cells and extracts the contact can be indirect. Some binding calls cover weakened binding; strength is not graded here. Tags and fused reporters may be left off the sequences shown.

Target: T1, recombinant AtNF-YC4 (full-length), tagged, for pull-down (Arabidopsis thaliana) (UniProt Q9FMV5)
T1 sequence (looked up): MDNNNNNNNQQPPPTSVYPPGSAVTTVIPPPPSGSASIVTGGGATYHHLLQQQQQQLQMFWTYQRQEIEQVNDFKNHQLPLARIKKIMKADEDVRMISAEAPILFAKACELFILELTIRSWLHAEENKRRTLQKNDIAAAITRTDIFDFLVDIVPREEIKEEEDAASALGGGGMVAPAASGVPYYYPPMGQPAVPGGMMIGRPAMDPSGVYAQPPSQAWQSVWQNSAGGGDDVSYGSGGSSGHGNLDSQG
Experiment: GST pull-down, immunoblot

B1: GST-QQS fusion protein (protein, not shown: a dimerising Fc or GST)
chain: MKTNREQEIYVERSFKPNNSTIQNLMDIERFILPHTSTSGVARLKMRVISWVGLQFYNY
Question: Which binding does the source give for B1 here?
Answer: The binding was “binds”.
